The target in assay [1] is T1, Bt1762 (SusD) SusDBR, seven FOS-binding residues changed to alanine (Bacteroides thetaiotaomicron) (UniProt Q8A6W4).
T1 sequence (chain, lipid anchor (lipoprotein)): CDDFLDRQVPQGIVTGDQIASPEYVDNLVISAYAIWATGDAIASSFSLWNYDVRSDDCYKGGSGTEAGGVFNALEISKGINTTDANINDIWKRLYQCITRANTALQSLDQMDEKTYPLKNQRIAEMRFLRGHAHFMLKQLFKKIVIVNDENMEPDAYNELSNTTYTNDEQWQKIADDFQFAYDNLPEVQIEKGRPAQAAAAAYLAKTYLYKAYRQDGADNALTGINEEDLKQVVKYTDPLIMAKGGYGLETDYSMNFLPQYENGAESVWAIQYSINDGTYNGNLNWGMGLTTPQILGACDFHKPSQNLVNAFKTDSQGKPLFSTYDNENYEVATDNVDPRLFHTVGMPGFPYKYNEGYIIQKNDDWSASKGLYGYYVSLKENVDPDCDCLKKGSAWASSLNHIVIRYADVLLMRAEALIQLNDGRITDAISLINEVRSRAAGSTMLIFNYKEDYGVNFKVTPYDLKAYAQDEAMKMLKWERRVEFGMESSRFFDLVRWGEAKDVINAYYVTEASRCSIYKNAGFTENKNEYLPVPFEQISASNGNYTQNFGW
As to the kind of experiment: co-purification (IMAC by the His6 tag on Bt1762, SDS-PAGE); OM fractions (LDAO extract) of WT (Bt1762-his) and mutant strains grown on MM fructose; Ni column, 0.2% LDAO in 20 mM Tris, 300 mM NaCl pH 8.

Assay [2] deals with T2, Bt1762 (SusD) W85A (Bacteroides thetaiotaomicron) (UniProt Q8A6W4).
T2 sequence (chain, lipid anchor (lipoprotein)): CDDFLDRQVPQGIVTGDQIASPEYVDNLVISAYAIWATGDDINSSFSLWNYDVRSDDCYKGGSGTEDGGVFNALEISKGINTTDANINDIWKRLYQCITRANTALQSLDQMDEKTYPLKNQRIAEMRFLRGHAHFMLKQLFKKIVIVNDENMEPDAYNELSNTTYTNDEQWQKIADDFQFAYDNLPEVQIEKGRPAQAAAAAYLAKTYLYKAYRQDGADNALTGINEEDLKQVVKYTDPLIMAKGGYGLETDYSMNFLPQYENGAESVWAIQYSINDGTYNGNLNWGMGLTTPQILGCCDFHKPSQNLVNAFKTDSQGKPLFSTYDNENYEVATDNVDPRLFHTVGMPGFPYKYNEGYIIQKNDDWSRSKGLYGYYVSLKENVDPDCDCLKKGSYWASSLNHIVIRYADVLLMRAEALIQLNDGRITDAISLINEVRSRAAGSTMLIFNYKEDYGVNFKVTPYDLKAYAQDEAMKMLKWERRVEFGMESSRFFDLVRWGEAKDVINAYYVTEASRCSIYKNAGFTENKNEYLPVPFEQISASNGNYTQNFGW
Described as above.

Results are given in words; binding and its absence hold for the method and conditions named. Some entries that bind do so weakly or less than the wild type.

B1: Bt1763 (SusC) TonB-dependent transporter of the Bacteroides thetaiotaomicron levan utilisation locus (protein, UniProt Q8A6W3 26-1041)
chain: GQNITVKGNVTSKTDGQPIIGASVVETTATTNGTITDFDGNFTLSVPVNSTLKITYIGYKPVTVKAAAIVNVLLEEDTQMVDEVVVTGYTTQRKADLTGAVSVVKVDEIQKQGENNPVKALQGRVPGMNITADGNPSGSATVRIRGIGTLNNNDPLYIIDGVPTKAGMHELNGNDIESIQVLKDAASASIYGSRAANGVIIITTKQGKKGQIKINFDASVSASMYQSKMNVLNTEQYGRAMWQAYVNDGENPNGNALGYAYNWGYNADGNPVLYGMTLSKYLDSKNTMPVADTDWFDEITRTGVIQQYNLSVSNGSEKGSSFFSLGYYKNLGVIKDTDFDRFSARMNSDYKLIDDILTIGQHFTLNRTSEVQAPGGIIETALDIPSAIPVYASDGSWGGPVGGWPDRRNPRAVLEYNKDNRYTYWRMFGDAYVNLTPFKGFNLRSTFGLDYANKQARYFTYPYQEGTQTNNGKSAVEAKQEHWTKWMWNAIATYQLEVGKHRGDVMIGMELNREDDSHFSGYKEDFSILTPDYMWPDAGSGTAQAYGAGEGYSLVSFFGKMNYSYADRYLLSLTLRRDGSSRFGKNHRYATFPSVSLGWRITQENFMKELTWLDDLKLRASWGQTGNQEISNLARYTIYAPNYGTTDSFGGQSYGTAYDITGSNGGGVLPSGFKRNQIGNDNIKWETTTQTNVGIDFSLFKQSLYGSLEYYYKKATDILTEMAGVGVLGEGGSRWINSGAMKNQGFEFNLGYRNKTAFGLTYDLNGNISTYRNEILELPETVAANGKFGGNGVKSVVGHTYGAQVGYIADGIFKSQDEVDNHATQEGAAVGRIRYRDIDHNGVIDERDQNWIYDPTPSFSYGLNIYLEYKNFDLTMFWQGVQGVDIISDVKKKSDFWSASNVGFLNKGTRLLNAWSPTNPNSDIPALTRSDTNNEQRVSTYFVENGSFLKLRNIQLGYTVPAVISKKMRMDRLRFYCSAQNLLTIKSKNFTGEDPENPNFSYPIPVNITFGLNIGF
Consider B1, for which the binding entry in assay [1] and in assay [2] was “binds” each time.

(Values after publication PMC7782687, “Insights into SusCD-mediated glycan import by a prominent gut symbiont” (Nature Communications, 2021).)
